The data set relates to vitelline membrane of Xenopus oocytes. Put plainly: Background fluorescence of oocytes on dye labelling (dye accessibility through the vitelline membrane). Also on record: species or system X. laevis and X. borealis. As to conditions: with or without 1 min protease, 10 μM dye in ND96, 25 s, n = 7.

Structures are written as SMILES.

With `CCN(CC)c1ccc2c(-c3ccc(S(=O)(=O)NCCSS(C)(=O)=O)cc3S(=O)(=O)[O-])c3ccc(=[N+](CC)CC)cc-3oc2c1` [MTSR, sulfo rhodamine methanethiosulfonate], the “Background fluorescence upon labelling, X. borealis oocytes” value (X. borealis oocytes expressing α1N203C GlyR) is listed as “only increased following protease treatment then labelling”. Also, the “Background fluorescence upon labelling, X. laevis oocytes” value (X. laevis oocytes expressing α1N203C GlyR) is reported as “increased to a similar degree upon sulfo rhodamine methanethiosulfonate (MTSR) labelling irrespective of protease treatment”.

(Values after paper PMC4594035, “Xenopus borealis as an alternative source of oocytes for biophysical and pharmacological studies of neuronal ion channels” (Scientific Reports, 2015).)
